# Measurements reported in PubChem BioAssay AID652243 (Drosophila RNAi Screening Center, 2013).
# Purpose: 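Knock-downs that decrease or increase androgen receptor reporter signal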 (primary screen)
# System: Drosophila S2R+ cells
# Reagents: long dsRNA against Drosophila genes
# Time to read-out: 72 h (48 h, then 24 h hormone)
# Challenge: synthetic androgen R1881 at 10 nM for 24 h
# Measured: 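Firefly light from an androgen-responsive reporter and Renilla control light per well, raw and unnormalised, for each of two replicates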
# Reading the numbers: firefly reporter light: higher = more light from androgen-responsive reporter; Renilla control light: higher = more constitutive control signal (cell number, transfection)
# Active means: 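Hit when the log firefly-to-Renilla ratio dropped or increased by a fixed fold versus the mean of GFP or LacZ controls across duplicate plates; lowering cut given as 1.5 and as 3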
# Meaning of the calls: active = hit: reporter lowered or raised; inactive = no hit
# The screen tested about 24,000 reagents; shown is a random part of those that have a named target and a result. Over the whole deposit, 246 (1%) are marked active. 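Plates not normalised; calls are printed but the firefly/Renilla ratio behind them is not deposited; fold cut for lowering reported inconsistently.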 Raw values vary from plate to plate and are shown uncorrected. A plus sign joins genes that one reagent is predicted to hit. Not given: the amount of reagent.
gene knocked down,DRSC id,"firefly reporter light, replicate 1","firefly reporter light, replicate 2","Renilla control light, replicate 1","Renilla control light, replicate 2",call
ValRS (Valyl-tRNA synthetase),DRSC06864,1.33e6,1.21e6,1.46e6,1.12e6,inactive
CG10467,DRSC09728,1.78e5,2.27e5,1.89e6,2.07e6,inactive
ICA69 (Islet cell autoantigen 69 kDa),DRSC11621,30605,26603,2.63e5,3.51e5,inactive
CG2121,DRSC06819,8.98e5,8.25e5,1.47e6,1.56e6,inactive
CG2121,DRSC06820,3.77e5,3.26e5,1.93e6,1.72e6,inactive
Sil1 (Sil1 nucleotide exchange factor),DRSC14242,82020,25645,5.12e5,2.44e5,inactive
Ire1 (Inositol-requiring enzyme-1),DRSC15606,1.72e5,2.10e5,2.83e6,3.36e6,inactive
Ire1 (Inositol-requiring enzyme-1),DRSC36940,,,,,inactive
Ire1 (Inositol-requiring enzyme-1),DRSC36941,,,,,inactive
CG9192,DRSC08639,72524,59115,7.05e5,7.56e5,inactive
snoRNA:U31:54Ec + snoRNA:snR38:54Eb + snoRNA:U27:54Eb + 8 more,DRSC06458,1.09e5,1.02e5,2.02e6,2.02e6,inactive
Vdup1 (Vitamin D[[3]] up-regulated protein 1),DRSC08586,1.02e5,1.35e5,1.43e6,1.85e6,inactive
Rrp5 (Ribosomal RNA Processing 5),DRSC15862,51528,51085,4.24e5,3.94e5,inactive
Rrp5 (Ribosomal RNA Processing 5),DRSC29039,1.03e6,7.71e5,1.27e6,7.79e5,inactive
CG32086,DRSC10586,2.75e5,1.55e5,2.81e6,1.30e6,inactive
CG7423,DRSC20044,1.81e5,1.30e5,5.96e5,3.97e5,inactive
Muc26B (Mucin 26B),DRSC02322,2.69e5,1.79e5,2.30e6,1.85e6,inactive
Muc26B (Mucin 26B),DRSC28140,5.26e5,4.39e5,2.28e6,1.61e6,inactive
Muc26B (Mucin 26B),DRSC39082,4.65e5,1.92e5,1.57e6,5.73e5,inactive
Uba3 (Ubiquitin-like activating enzyme 3),DRSC06377,8.97e5,7.99e5,2.04e6,2.12e6,inactive
CG43315,DRSC06296,2.08e5,2.65e5,2.06e6,2.04e6,inactive
ctp (cut up),DRSC18758,87506,36402,4.39e5,3.50e5,inactive
ctp (cut up),DRSC25165,7.58e5,7.93e5,9.96e5,6.94e5,inactive
CG15353,DRSC00383,1.08e5,1.17e5,6.77e5,5.77e5,inactive
CG15353,DRSC24727,7.17e5,4.76e5,8.41e5,8.74e5,inactive
CG13445,DRSC09992,4.18e5,3.22e5,1.97e6,2.01e6,inactive
CG13445,DRSC25076,9.61e5,7.65e5,1.17e6,1.16e6,inactive
"E(spl)m2-BFM (Enhancer of split m2, Bearded family member)",DRSC23082,5.85e5,7.89e5,1.19e6,2.01e6,inactive
CG18568,DRSC06768,8.84e5,7.39e5,2.40e6,2.14e6,inactive
CG18568,DRSC24546,9.45e5,9.61e5,8.34e5,7.66e5,inactive
CG1116,DRSC12166,68956,94225,1.03e6,1.12e6,inactive
l(3)mbt (lethal (3) malignant brain tumor),DRSC16983,40236,63414,5.21e5,5.21e5,inactive
l(3)mbt (lethal (3) malignant brain tumor),DRSC26103,4.27e5,4.55e5,1.09e6,8.73e5,inactive
LSm1 (Like Sm 1),DRSC04458,5.11e5,3.89e5,3.45e6,2.37e6,inactive
spirit (Serine Protease Immune Response Integrator),DRSC18202,1.30e5,53628,3.90e5,5.42e5,inactive
spirit (Serine Protease Immune Response Integrator),DRSC25748,7.69e5,6.07e5,7.79e5,6.06e5,inactive
fj (four-jointed),DRSC07619,98169,1.56e5,1.60e6,1.60e6,inactive
fj (four-jointed),DRSC27535,3.01e5,3.25e5,4.71e5,5.16e5,inactive
TrxT (Thioredoxin T),DRSC23117,6.70e5,9.73e5,1.27e6,1.73e6,inactive
unc-104 (uncoordinated-104),DRSC07710,1.31e5,98021,2.36e6,2.36e6,inactive
CG13699,DRSC10048,1.71e5,1.32e5,1.88e6,1.89e6,inactive
CG13699,DRSC26349,2.93e5,3.42e5,7.28e5,7.02e5,inactive
Dna2 (DNA replication helicase/nuclease 2),DRSC18254,1.03e5,1.40e5,9.88e5,1.05e6,inactive
CG11370,DRSC11653,3.09e5,3.11e5,2.59e6,2.46e6,inactive
CG11370,DRSC28361,4.69e5,6.41e5,7.78e5,1.13e6,inactive
CR14117 (pseudo),DRSC10121,1.13e5,81053,1.26e6,9.67e5,inactive
CR14117 (pseudo),DRSC25950,5.95e5,6.42e5,7.23e5,7.38e5,inactive
CG1143,DRSC08188,1.36e5,51951,1.06e6,5.33e5,inactive
P5cr (Pyrroline 5-carboyxlate reductase),DRSC16782,1.80e5,1.72e5,2.47e6,2.75e6,inactive
CG15927,DRSC19742,2.16e5,2.08e5,3.77e6,3.66e6,inactive
CG15927,DRSC28678,5.07e5,5.28e5,1.68e6,1.31e6,inactive
"alpha4GT2 (alpha1,4-galactosyltransferase 2)",DRSC15905,1.72e5,1.78e5,1.88e6,2.12e6,inactive
CG12477,DRSC09886,1.99e5,2.21e5,2.00e6,2.59e6,inactive
CG12477,DRSC24078,1.05e6,1.01e6,9.65e5,1.29e6,inactive
CG6380,DRSC02950,1.68e5,1.37e5,1.85e6,1.53e6,inactive
CG6380,DRSC36843,,,,,inactive
me31B (maternal expression at 31B),DRSC03569,8.51e5,9.90e5,1.36e6,2.04e6,inactive
Naa80 (N(alpha)-acetyltransferase 80),DRSC16429,90351,87528,1.09e6,1.26e6,inactive
Naa80 (N(alpha)-acetyltransferase 80),DRSC28038,6.61e5,6.16e5,1.73e6,1.74e6,inactive
CG33695 + cana,DRSC01163,1.81e5,1.71e5,3.99e5,3.43e5,inactive
CG33695 + cana,DRSC03503,1.68e5,1.04e5,1.12e6,1.20e6,inactive
Dci (Dodecenoyl-CoA delta-isomerase),DRSC08360,5.57e5,5.71e5,2.43e6,2.92e6,inactive
Dci (Dodecenoyl-CoA delta-isomerase),DRSC28929,4.05e5,4.51e5,1.07e6,8.76e5,inactive
CG33003,DRSC22419,4.56e5,9.70e5,9.57e5,1.42e6,inactive
CG33003,DRSC26346,3.66e5,5.02e5,3.48e5,6.59e5,inactive
UQCR-6.4 (Ubiquinol-cytochrome c reductase 6.4 kDa subunit),DRSC06454,59723,67728,9.34e5,9.34e5,inactive
UQCR-6.4 (Ubiquinol-cytochrome c reductase 6.4 kDa subunit),DRSC28738,5.90e5,3.88e5,9.38e5,8.47e5,inactive
CG4970,DRSC02796,3.22e5,2.71e5,2.14e6,1.98e6,inactive
CG12914,DRSC06229,3.78e5,3.14e5,2.54e6,2.14e6,inactive
Scgalpha (Sarcoglycan alpha),DRSC03076,1.91e5,1.92e5,1.71e6,1.85e6,inactive
Scgalpha (Sarcoglycan alpha),DRSC29625,4.45e5,5.95e5,8.34e5,8.34e5,inactive
CG34393,DRSC00419,61150,78418,1.08e6,1.06e6,inactive
CG34393,DRSC00710,1.06e5,1.17e5,1.03e6,7.57e5,inactive
CG34393,DRSC24621,8.38e5,7.97e5,8.14e5,6.29e5,inactive
CG34393,DRSC26763,5.74e5,5.15e5,1.06e6,6.07e5,inactive
